From paper PMC12646458, “Structural characterization of the YbbAP-TesA ABC transporter identifies it as a lipid hydrolase complex that extracts hydrophobic compounds from the bacterial inner membrane” (PLOS Biology, 2025)
In brackets after ≈: the same amount, converted by molar mass.

Tests used:
Escherichia coli BW25113 = tested on: T1, Escherichia coli BW25113; test: microbe, parasite or virus in culture; set-up: antibiotic susceptibility testing of E. coli strains, MIC, median of replicates; settings: read-out: Median MIC
T1 construct: BW25113
Excerpt: (§1) Supplementary file pbio.3003427.s003.docx: S3 Table Antibiotic susceptibility testing for TesA and YbbP knockout strains. (DOCX)

[1] = tested on: T2, Escherichia coli C43(DE3); test: microbe, parasite or virus in culture; set-up: antibiotic susceptibility testing of E. coli strains, MIC, median of replicates; settings: D=+IPTG +Kan, median MIC, empty pET28, IPTG and kanamycin present
T2 construct: C43(DE3) carrying empty pET28 vector
Excerpt: as §1

- MIC (Escherichia coli BW25113): 16 µg/mL (≈ 46.1 µM)
- MIC [1]: 8 µg/mL (≈ 23 µM)
SMILES: CC1=C(C(=O)O)N2C(=O)[C@@H](NC(=O)[C@H](N)c3ccccc3)[C@H]2SC1 [Cephalexin]
